Measured values taken from patent US8058243B2, “Method for treating a brain cancer with ifenprodil” (HSC Research and Development Limited Partnership, priority 2006, dated 2011).

System: murine neural precursor cells (neurosphere cultures)
Assay: HTS of LOPAC library against secondary neurosphere cultures, MTT proliferation assay at 3 μM, day 7 (z score, P value)
Type: cell-based, mouse

SMILES	Z Score	Z score	Activity
COc1ccc(CC(C)NCC(O)c2ccc(O)c(NC=O)c2)cc1 (stereo not drawn) [Formoterol]	−0.8379	−0.838	
Cl.Clc1ccc(N2CCN(Cc3c[nH]c4ncccc34)CC2)cc1 [L-745,870 hydrochloride]			yes
